# Measured values published in PMC2669504.
# Chains of the proteins cited; added tags and fusions are not shown. Lines headed by an entry give the natural chain unless they say otherwise; changes in a name come on top.
# UniProt Q9Y5X4: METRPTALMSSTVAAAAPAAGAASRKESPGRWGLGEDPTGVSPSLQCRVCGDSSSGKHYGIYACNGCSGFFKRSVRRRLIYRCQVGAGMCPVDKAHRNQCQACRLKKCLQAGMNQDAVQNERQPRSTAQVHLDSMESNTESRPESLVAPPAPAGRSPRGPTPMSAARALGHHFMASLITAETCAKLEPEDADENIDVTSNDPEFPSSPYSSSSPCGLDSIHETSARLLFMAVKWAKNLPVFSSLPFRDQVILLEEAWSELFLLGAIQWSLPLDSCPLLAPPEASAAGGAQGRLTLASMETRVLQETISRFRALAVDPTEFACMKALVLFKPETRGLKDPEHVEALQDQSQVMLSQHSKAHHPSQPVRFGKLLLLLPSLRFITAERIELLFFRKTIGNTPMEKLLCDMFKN
# No constants are given. Whether binding was seen depends on the method and setting. Some binding calls cover weakened binding; strength is not graded here.
# What was measured:
# Assay in all cases: native gel or EMSA; nuclear extracts of transfected COS-1 cells with 32P-labelled Kni x2 dimeric response element probe; 25 mM HEPES pH 7.5, 50 mM KCl, 5 mM MgCl2, 0.1 mM EDTA, 0.1% NP40, 10% glycerol; 40 min at room temperature; 4% polyacrylamide gel; dimerization concluded from the shifted band on the dimeric …
# [1] = biological target: HA-tagged full-length NR2E3 R311Q (human) (UniProt Q9Y5X4)
# [2] = biological target: HA-tagged full-length NR2E3 (photoreceptor-cell specific nuclear receptor), wild-type (human) (UniProt Q9Y5X4)
# [3] = biological target: HA-tagged full-length NR2E3 W234S (human) (UniProt Q9Y5X4)
substance,measurement,setting,value
HA-tagged full-length NR2E3 R311Q (from UniProt Q9Y5X4 1-410),binding,[1],binds
"HA-tagged full-length NR2E3 (photoreceptor-cell specific nuclear receptor), wild-type (from UniProt Q9Y5X4 1-410)",binding,[2],binds
HA-tagged full-length NR2E3 W234S (from UniProt Q9Y5X4 1-410),binding,[3],binds
